Measured data: PubChem BioAssay AID1259405 (NCATS, 2018)
Shown is an unselected part of about 50,000 reagents. In the full data, about 4,000 (8%) are marked active. 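Mouse siRNA library applied to hamster cells; one well for each siRNA.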 A number with no mark means an inactive call. Reagents against one gene are numbered here.

Assay: 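Knock-downs that lift recombinant protein yield in hamster ovary cells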 (primary screen)
System: Chinese hamster CHO-K1 ovary cells with stable secreted eGFP expression
Knock-down reagent: single siRNA against mouse genes, 0.8 pmol siRNA per well (2 µl of 400 nM stock)
Time to read-out: 3 days
Detection: 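Percent of the per-plate non-targeting control median for intracellular GFP per well by laser scanning cytometry and for cell viability by ATP luminescence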
Reading the numbers: GFP, % of control: higher = more GFP per well, higher productivity; viability (ATP), % of control: higher = more viable cells (more ATP)
Rule for the call: 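Called active when intracellular GFP, relative to negative control, is at or above 120%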

| gene | reagent no. | GFP, % of control | viability (ATP), % of control |
| --- | --- | --- | --- |
| Atp4a | 1 | 111 | 92.7 |
| Atp4a | 2 | 98 | 73 |
| Atp4a | 3 | 95.1 | 84.2 |
| Tal2 | 1 | 73 | 71 |
| Tal2 | 2 | 60.7 | 35.6 |
| Tal2 | 3 | 59.6 | 64.7 |
| Rpl8 | 1 | 80.2 | 121 |
| Rpl8 | 2 | 135 (active) | 65.8 |
| Rpl8 | 3 | 97.6 | 88.2 |
| Usp14 | 1 | 83.3 | 99.6 |
| Usp14 | 2 | 66 | 69.1 |
| Usp14 | 3 | 94.7 | 83 |
| Adh1 | 1 | 76.5 | 66 |
| Adh1 | 2 | 101 | 60 |
| Adh1 | 3 | 119 | 85.2 |
| Crlf2 | 1 | 80.5 | 31 |
| Crlf2 | 2 | 103 | 89.7 |
| Crlf2 | 3 | 90.5 | 83.7 |
| Brox | 1 | 89.1 | 94.1 |
| Brox | 2 | 108 | 96.9 |
| Brox | 3 | 72.2 | 96 |
| Kcnk18 | 1 | 81.5 | 62.2 |
| Kcnk18 | 2 | 98.6 | 78.6 |
| Kcnk18 | 3 | 94.8 | 67.4 |
| Mas1 | 1 | 82.1 | 84.4 |
| Mas1 | 2 | 87.5 | 84.2 |
| Mas1 | 3 | 73.4 | 69.5 |
| Mrps17 | 1 | 72.4 | 34.8 |
| Mrps17 | 2 | 99.6 | 73.6 |
| Mrps17 | 3 | 47.5 | 68.2 |
| Golga2 | 1 | 64.4 | 63.1 |
| Golga2 | 2 | 76.8 | 84.7 |
| Mcts2 | 1 | 43.9 | 40.7 |
| Mcts2 | 2 | 148 (active) | 107 |
| Mcts2 | 3 | 88.7 | 91.3 |
| Exoc5 | 1 | 56.7 | 67.6 |
| Exoc5 | 2 | 41.9 | 47.1 |
| Exoc5 | 3 | 86.2 | 81 |
| Pear1 | 1 | 119 | 121 |
| Pear1 | 2 | 66.4 | 77.7 |
| Pramel7 | 1 | 143 (active) | 108 |
| Pramel7 | 2 | 119 | 88 |
| Pramel7 | 3 | 70.9 | 93 |
| Nsa2 | 1 | 43.8 | 57.4 |
| Nsa2 | 2 | 52.6 | 64.6 |
| Nsa2 | 3 | 56 | 106 |
| Pde6d | 1 | 81.4 | 70.2 |
| Pde6d | 2 | 88.7 | 76.6 |
| Pde6d | 3 | 90 | 79.3 |
| Or5b109 | 1 | 48.9 | 30.8 |
| Or5b109 | 2 | 88.8 | 104 |
| Or5b109 | 3 | 62.2 | 57.2 |

9 of these entries, set out differently:
{"gene":"Mrps17","reagent no.":3,"GFP, % of control":47.5,"viability (ATP), % of control":68.2}
{"gene":"Golga2","reagent no.":1,"GFP, % of control":64.4,"viability (ATP), % of control":63.1}
{"gene":"Golga2","reagent no.":2,"GFP, % of control":76.8,"viability (ATP), % of control":84.7}
{"gene":"Mcts2","reagent no.":1,"GFP, % of control":43.9,"viability (ATP), % of control":40.7}
{"gene":"Mcts2","reagent no.":2,"GFP, % of control":"148 (active)","viability (ATP), % of control":107}
{"gene":"Mcts2","reagent no.":3,"GFP, % of control":88.7,"viability (ATP), % of control":91.3}
{"gene":"Exoc5","reagent no.":1,"GFP, % of control":56.7,"viability (ATP), % of control":67.6}
{"gene":"Exoc5","reagent no.":2,"GFP, % of control":41.9,"viability (ATP), % of control":47.1}
{"gene":"Exoc5","reagent no.":3,"GFP, % of control":86.2,"viability (ATP), % of control":81}

More reagents follow:
| gene | reagent no. | GFP, % of control | viability (ATP), % of control |
| --- | --- | --- | --- |
| Zpbp2 | 1 | 51 | 53.6 |
| Zpbp2 | 2 | 68 | 59.8 |
| Zpbp2 | 3 | 69.4 | 105 |
| Zfp825 | 1 | 50.7 | 54.4 |
| Zfp825 | 2 | 70 | 63.7 |
| Zfp825 | 3 | 106 | 101 |
| Bbof1 | 1 | 45.3 | 29.5 |
| Bbof1 | 2 | 61 | 41.6 |
| Bbof1 | 3 | 75.9 | 97.1 |
| Nrbp2 | 1 | 47.3 | 60.2 |
| Vps41 | 1 | 153 (active) | 146 |
| Vps41 | 2 | 98.1 | 75.4 |
| Nr5a1 | 1 | 85.7 | 33 |
| Nr5a1 | 2 | 74.9 | 85 |
| Nr5a1 | 3 | 71.5 | 46.2 |
| Tubb4b | 1 | 95.7 | 93.4 |
| Tubb4b | 2 | 91 | 85.3 |
| Rgs7bp | 1 | 86.3 | 113 |
| Rgs7bp | 2 | 93.6 | 87.2 |
| Rgs7bp | 3 | 143 (active) | 121 |
| Mbd3l2 | 1 | 106 | 94.2 |
| Mbd3l2 | 2 | 95.4 | 80.6 |
| Mbd3l2 | 3 | 73 | 65.1 |
| Ncor2 | 1 | 94 | 87 |
| Ncor2 | 2 | 131 (active) | 99.6 |
| Arl6ip6 | 1 | 77.1 | 54.6 |
| Arl6ip6 | 2 | 87.1 | 80.9 |
| Arl6ip6 | 3 | 115 | 117 |
| Nrxn3 | 1 | 65.2 | 90 |
| Nrxn3 | 2 | 104 | 103 |
| Nrxn3 | 3 | 101 | 98.1 |
| Ints13 | 1 | 34.9 | 38.6 |
| Ints13 | 2 | 67.1 | 96.8 |
| Ints13 | 3 | 70.1 | 109 |
| Mto1 | 1 | 102 | 81.8 |
| Mto1 | 2 | 53.5 | 81.9 |
| Mto1 | 3 | 107 | 64.3 |
| Sgo1 | 1 | 125 (active) | 85.2 |
| Sgo1 | 2 | 96.7 | 87.6 |
| Sgo1 | 3 | 69.6 | 88 |
| Cdca7 | 1 | 73.7 | 81.5 |
| Cdca7 | 2 | 66.8 | 82.7 |
| Cdca7 | 3 | 99.5 | 95.8 |
| Abcb8 | 1 | 70.2 | 62.9 |
| Abcb8 | 2 | 64.8 | 87.2 |
| Abcb8 | 3 | 56.3 | 24.8 |
| Kcnip3 | 1 | 49.8 | 70.4 |
| Kcnip3 | 2 | 76.1 | 58 |
| Kcnip3 | 3 | 71.2 | 79.7 |
| Anapc7 | 1 | 37.7 | 33 |
| Anapc7 | 2 | 63.7 | 71.6 |
| Anapc7 | 3 | 131 (active) | 91 |
| Zfpm1 | 1 | 25 | 23.6 |
| Zfpm1 | 2 | 70.9 | 85.1 |
| Zfpm1 | 3 | 78.7 | 90.5 |
